Assay results: PubChem BioAssay AID493014 (National Center for Advancing Translational Sciences (NCATS), 2011)
Screen size: about 340,000 compounds; about 170 (0.05%) were called active. This list was built around the results that the source calls inconclusive (neither active nor inactive); the mix of calls is not that of the screen. Calls follow the shape of the dose curve; as a rule, active = well fitted inhibition curve with a large enough effect in the signal ratio, with a control signal flat (not every such curve was filed as active); inconclusive = small, poorly fitted or top-dose-only effect, or effect the other way, or a change in a side signal; inactive = flat fitted curve, though single readings scatter; the % refers to the signal ratio. Where the call is inconclusive, the potency comes from a doubtful curve fit. Peptide text beside a SMILES is read from it. * marks the point of attachment. Boc = CC(C)(C)OC(=O)*

experiment: qHTS Assay to Find Inhibitors of Chronic Active B-Cell Receptor Signaling; details: ABC-DLBCL IkBa-CBG/CBR reporter, luminescence ratio (green luciferase fused to IkBa over red control in TMD8 lymphoma cells), 4 h; activity change, negative = inhibition: at 46.1 µM (top of the series);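 as to activity change, negative = inhibition: plate controls were basal doxycycline-induced cells for no effect and cells given 10 µM MG132 for full effect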
Summary of the method: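 TMD8 ABC-DLBCL cells carrying doxycycline-inducible green luciferase fused to IkappaBalpha plus unfused red luciferase were exposed to compounds (up to 46 uM) for 4 hrs at 37C. Activity came from the overlap-corrected green/red luminescence ratio.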
Potency is read from the fitted curve at half-maximal effect.

Structure (SMILES) | activity change, negative = inhibition | Potency
CC(=O)N1CCc2ccc(S(=O)(=O)Nc3ccccc3Cl)cc21 | inactive | –
Cc1ccc2nc(C)c(Cl)c(=O)n2c1 | inconclusive: -20% | –
O=C(c1cccs1)n1nc(-c2ccccc2)nc1NCc1ccc(F)cc1 | inconclusive: 25.9% | –
Cc1cc(=O)[nH]c(SCC(=O)Nc2ccc(C(=O)O)cc2)n1 | – | inconclusive: 18.4 µM [falling, single point]
Cc1cccc(N/C=C/C(=O)c2cccs2)c1C | – | inconclusive: 29.1 µM [falling, single point]
Cc1cc2c(N=NC(=O)CCc3ccccc3)c(O)[nH]c2cc1Br | inconclusive: 9.86% | –
CCc1ccc(NC(=O)CSc2nc3ccccc3c(=O)n2CCCN2CCC(C)CC2)cc1 | inactive | –
CC(C)CC(NC(=O)C1CCCN1C(=O)OC(C)(C)C)C(=O)NCC(N)=O (stereo not drawn) (Boc-Pro-Leu-Gly-NH2; configuration not given here) | inconclusive: 3.19% | –
Cc1ccccc1C(=O)NC(=S)NCCc1ccccc1 | – | inconclusive: 20.6 µM [falling, partial curve]
CCCn1c(C)cc(-c2csc(NC(=O)CCc3nc4ccccc4c(=O)[nH]3)n2)c1C | inconclusive: 13.7% | –
COc1ccccc1/C=C1/C(=O)N(c2ccccc2)N=C1C | inconclusive: 17.7% | –
COc1cccc(C(=O)NNC(=O)Cc2ccc([N+](=O)[O-])cc2)c1 | – | inconclusive: 16.4 µM [falling, partial curve]
CC(C)c1ccc(/C=N\NC(=O)c2ccc(Cn3cccn3)o2)cc1 | – | inconclusive: 18.4 µM [falling, partial curve]
Oc1ccccc1/C=C/c1noc(-c2ccccc2O)n1 | inconclusive: 391% | –
CN(C)NC(=S)Nc1cccc(C(F)(F)F)c1 | inactive | –
CCOC(=O)c1ccc(NC(=O)Oc2cc(C)c(Cl)cc2C(C)C)cc1 | inconclusive: -0.154% | –
O=C(Cn1cnc([N+](=O)[O-])n1)N/N=C/c1ccc(O)cc1O | – | inconclusive: 15.8 µM [falling, partial curve]
O=C(COc1ccc([N+](=O)[O-])cc1Cl)N1CCc2ccccc21 | inconclusive: 7.45% | –
CC1CCN(C(=O)Cn2cnc3c(cnn3C(C)(C)C)c2=O)CC1 | inconclusive: 9.68% | –
N#CC1=C(N)Oc2n[nH]c(CSc3ccccc3)c2C12C(=O)Nc1ccccc12 (stereo unspecified) | inconclusive: -26.4% | –
N#C/C(=C/c1ccc(Br)o1)C(N)=S | inconclusive: 14.2% | –

Structures shown so far with a nitro group on carbon, in the order listed:
Structure (SMILES) | activity change, negative = inhibition | Potency
COc1cccc(C(=O)NNC(=O)Cc2ccc([N+](=O)[O-])cc2)c1 | – | inconclusive: 16.4 µM [falling, partial curve]
O=C(Cn1cnc([N+](=O)[O-])n1)N/N=C/c1ccc(O)cc1O | – | inconclusive: 15.8 µM [falling, partial curve]
O=C(COc1ccc([N+](=O)[O-])cc1Cl)N1CCc2ccccc21 | inconclusive: 7.45% | –

Further results.

Structure (SMILES) | activity change, negative = inhibition | Potency
Cc1ccsc1/C=N/NC(=O)c1cc(-c2ccncc2)nc2ccccc12 | – | inconclusive: 7.31 µM [falling, partial curve]
Cc1ccc(NC(=O)c2cccc(C(=O)Nc3ccc(C)cc3C(=O)O)c2)c(C(=O)O)c1 | – | inconclusive: 5.62 µM [falling, single point]
CC(CCC(=O)O)C1CC[C@@]2(C)C3C(=O)CC4C(C)(C)C(O)CC[C@]4(C)C3C(=O)C[C@]12C (stereo partly specified) | inconclusive: 0.824% | –
O=S(=O)(NCc1cn2ccsc2n1)c1ccc2c(c1)OCCO2 | inconclusive: -4.5% | –
COc1ccc(S(=O)(=O)N2CCC(C(=O)N3CCCC3)CC2)cc1 | inconclusive: 1.2% | –
COc1ccc(NC(=O)c2ccc(NCCN3C(=O)CCC3=O)c([N+](=O)[O-])c2)cc1 | inconclusive: -18.4% | –
C/C(=N\Nc1nc2ccccc2[nH]1)c1ccc(C)o1 | – | inconclusive: 18.4 µM [falling, partial curve]
COC(=O)CSc1nnc(CNC(=O)Cc2ccccc2)n1-c1ccccc1OC | – | inconclusive: 22.4 µM [falling, single point]
Cc1cnc(NC(=O)C2CC(=O)N(c3cccc(Cl)c3)C2)s1 (stereo unspecified) | inconclusive: 10% | –
CCOc1ccccc1Nc1nc2ccc(C)cc2n2cnnc12 | inconclusive: 0.0071% | –
CS(=O)(=O)N1CCc2cc(C(=O)N3CCN(c4ccc(F)cc4)CC3)ccc21 | inactive | –
COc1cc(OC)c(OC)cc1/C=C1\CC(C)C/C(=C\c2cc(OC)c(OC)cc2OC)C1=O (stereo unspecified) | inconclusive: 13.5% | –
Cc1cc(NC(=O)c2cc(C)on2)no1 | inactive | –
CC(C)(C)C(=O)C(Cc1ccccc1)n1cncn1 (stereo unspecified) | inactive | –
COc1ccc(CCNC(=O)C2CC(c3ccc([N+](=O)[O-])cc3)=NO2)cc1 (stereo unspecified) | inconclusive: 4.05% | –
CCOC(=O)c1ccc(Oc2cn[nH]c2-c2ccc(OCC(=O)NN)cc2O)cc1 | inconclusive: -7.89% | –
CCOC(=O)c1c(-n2cnnn2)sc(C)c1C | inconclusive: -2.25% | –
CCOC(=O)/C=c1\s/c(=C\c2ccc(C(=O)OC)cc2)c(=O)n1CC(=O)Nc1ccccc1 | inconclusive: -1.26% | –
CC(=O)N1CCc2cc(S(=O)(=O)NCCC(=O)NCCc3ccccc3)ccc21 | inconclusive: 5.83% | –
CCN(C(=O)CSc1nnc(Nc2ccccc2C)s1)C1CCS(=O)(=O)C1 (stereo unspecified) | inactive | –
O=C(Nc1ccc(C(F)(F)F)cc1)c1cc(S(=O)(=O)NCC2COc3ccccc3O2)ccc1F (stereo unspecified) | – | inconclusive: 20.6 µM [falling, partial curve, poor fit]

Structure (SMILES) | activity change, negative = inhibition | Potency
CCC(C)[C@H](NC(=O)[C@@H]1Cc2c([nH]c3ccccc23)C2c3ccccc3C(=O)N21)C(=O)N1CCC[C@@H]1C(=O)O (stereo partly specified) | inconclusive: 34.7% | –
CC1CCCN(C(=O)c2ccc(NC(=O)CC3SC(N4CCCC4)=NC3=O)cc2)C1 (stereo unspecified) | inconclusive: 13% | –
CC(C)N(C(=O)CSc1nc2ccccc2n1Cc1ccccc1F)C(C)C | – | inconclusive: 16.4 µM [activator, single point]
CCOC(=O)c1sc(SC)c(C(C)=O)c1C | inconclusive: 1.97% | –
CC(=O)CCC(=O)OCC(=O)c1ccc(C(F)(F)F)cc1 | inactive | –
O=C(NNC(=O)c1cccs1)c1csc(N2CCOCC2)n1 | – | inconclusive: 23.1 µM [falling, single point]
O=C(OCCCc1cc2ccccc2c(=O)o1)c1ccco1 | inconclusive: 5.61% | –
O=C(Nc1ccc(-n2cc(Br)cn2)cc1)c1ccncc1 | inconclusive: 6.31% | –
CC(C)c1ccc(-c2csc3nc[nH]c(=O)c23)cc1 | inconclusive: 3.57% | –
Cc1ncc(C(=O)O)c(C(=O)O)c1N | inconclusive: -3.19% | –
O=C(N/N=C/c1ccc(-c2ccccc2)o1)c1ccccc1O | – | inconclusive: 35.5 µM [rising, partial curve]
Cc1sc(N/N=C/c2cccs2)nc1-c1ccccc1 | – | inconclusive: 29.1 µM [rising, single point]
O=c1c(-c2n[nH]c(=S)o2)cccn1Cc1ccccc1 | – | inconclusive: 14.1 µM [falling, partial curve, poor fit]
Nc1ccc2nc(SCc3ccccc3F)sc2c1 | inconclusive: 0.969% | –
CC1CCN(c2oc(-c3cccc4ccccc34)nc2C#N)CC1 | inactive | –
Cc1cc(C)[n+]2[nH]c(N)c(N=Nc3ccccc3)c2n1 | – | inconclusive: 35.5 µM [falling, single point]
Cc1ccccc1C(=O)Nc1cc(S(=O)(=O)N2CCCCC2)ccc1N1CCN(C)CC1 | inactive | –
CSc1ccccc1OCc1cc(C(=O)N2CCc3[nH]cnc3C2c2ccccn2)no1 (stereo unspecified) | inconclusive: -22.2% | –
CCN(CC)c1ccc(C=Nc2cc(C)cc(C)c2)c(O)c1 | inconclusive: -1.87% | –
COc1ccc(/C=N/NC(=S)Nc2cc(C(F)(F)F)ccc2Cl)cc1 | inactive | –
Cc1cccc2c1NC(=O)/C2=C\C(=O)c1cccs1 | – | inconclusive: 29.1 µM [rising, single point]

Structure (SMILES) | activity change, negative = inhibition | Potency
COc1ccc(C(=O)Nc2cc3c(cc2C#N)OCO3)cc1S(=O)(=O)NCc1ccco1 | inconclusive: -23.8% | –
O=C(NCCc1ccc(Cl)cc1)c1ccc(CS(=O)(=O)Cc2ccccc2F)o1 | inactive | –
Cc1ccc(NC(=O)CCCc2nc3ccccc3c(=O)[nH]2)c(Cl)c1 | inconclusive: -1.4% | –
CCc1n[nH]c(=S)n1/N=C/c1ccc2c(c1)OCO2 | inactive | –
C=C(C)CSc1nnc(CCCCCNC(=O)OC(C)(C)C)o1 | inactive | –
COc1cc(C=O)ccc1OC(=O)c1ccc(C(C)C)cc1 | inconclusive: 0.6% | –
CC1CCN(Cc2c(C(=O)N/N=C/c3ccc(OC(C)C)cc3)nnn2-c2nonc2N)CC1 | – | inconclusive: 14.1 µM [rising, partial curve, poor fit]
c1ccc2c(-c3nc(-c4ccncc4)no3)cccc2c1 | inconclusive: 1.77% | –
Cc1cc(NC(=O)CN2C(=O)NC(c3ccccc3)(c3ccc(C)c(C)c3)C2=O)no1 (stereo unspecified) | inconclusive: -17.8% | –
COc1ccc2oc(C(=O)OCc3nnc(-c4ccccc4)o3)c(C)c2c1 | inconclusive: 8% | –
CCOC(=O)N1CCN(C(=O)C2CCCN(S(=O)(=O)c3ccccc3)C2)CC1 (stereo unspecified) | – | inconclusive: 2.91 µM [rising, partial curve, poor fit]
O=C(COc1ccc(Cl)cc1Cl)Nc1cccnc1 | inconclusive: 7.28% | –
O=C(NC1CC(=O)N(c2ccc(Cl)cc2)C1)c1cccs1 (stereo unspecified) | inconclusive: -23.8% | –
Cc1ccnc(NC(=O)C(C)n2cc([N+](=O)[O-])cn2)c1 (stereo unspecified) | inconclusive: 18.8% | –
O=C1C(Cc2ccccc2)NC(=S)N1Cc1ccccc1 (stereo unspecified) | inactive | –
Cc1ccc(N(Cc2ccccc2)C(=O)c2ccc(S(=O)(=O)N3CCOCC3)cc2)cc1 | inconclusive: -4.12% | –
Cn1c(=O)[nH]c(=O)c2c1nc(SCCN1CCCCC1)n2Cc1ccccc1 | inconclusive: 14% | –
CC(C)(C)c1cc(NC(=O)COC(=O)c2ccc3c(=O)n4c(nc3c2)CCC4)n(-c2ccccc2)n1 | inconclusive: -9.54% | –
